The text below walks through data of the supplement of paper PMC12819154, “High-throughput peptide-centric local stability assay extends protein–ligand identification to membrane proteins, tissues and bacteria” (Nature Structural & Molecular Biology, 2025).

Chains of the proteins cited; added tags and fusions are not shown. Lines headed by an entry give the natural chain unless they say otherwise; changes in a name come on top.
UniProt Q9H777: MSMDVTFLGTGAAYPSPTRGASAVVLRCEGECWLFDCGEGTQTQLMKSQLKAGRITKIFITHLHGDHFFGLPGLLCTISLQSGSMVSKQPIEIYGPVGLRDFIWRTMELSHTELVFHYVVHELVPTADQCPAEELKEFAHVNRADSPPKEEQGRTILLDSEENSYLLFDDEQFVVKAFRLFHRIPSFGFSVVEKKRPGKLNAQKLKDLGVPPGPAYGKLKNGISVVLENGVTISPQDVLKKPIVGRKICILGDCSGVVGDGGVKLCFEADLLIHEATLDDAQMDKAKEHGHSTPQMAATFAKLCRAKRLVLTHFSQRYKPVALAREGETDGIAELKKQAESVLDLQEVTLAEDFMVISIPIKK
UniProt Q9NQC7: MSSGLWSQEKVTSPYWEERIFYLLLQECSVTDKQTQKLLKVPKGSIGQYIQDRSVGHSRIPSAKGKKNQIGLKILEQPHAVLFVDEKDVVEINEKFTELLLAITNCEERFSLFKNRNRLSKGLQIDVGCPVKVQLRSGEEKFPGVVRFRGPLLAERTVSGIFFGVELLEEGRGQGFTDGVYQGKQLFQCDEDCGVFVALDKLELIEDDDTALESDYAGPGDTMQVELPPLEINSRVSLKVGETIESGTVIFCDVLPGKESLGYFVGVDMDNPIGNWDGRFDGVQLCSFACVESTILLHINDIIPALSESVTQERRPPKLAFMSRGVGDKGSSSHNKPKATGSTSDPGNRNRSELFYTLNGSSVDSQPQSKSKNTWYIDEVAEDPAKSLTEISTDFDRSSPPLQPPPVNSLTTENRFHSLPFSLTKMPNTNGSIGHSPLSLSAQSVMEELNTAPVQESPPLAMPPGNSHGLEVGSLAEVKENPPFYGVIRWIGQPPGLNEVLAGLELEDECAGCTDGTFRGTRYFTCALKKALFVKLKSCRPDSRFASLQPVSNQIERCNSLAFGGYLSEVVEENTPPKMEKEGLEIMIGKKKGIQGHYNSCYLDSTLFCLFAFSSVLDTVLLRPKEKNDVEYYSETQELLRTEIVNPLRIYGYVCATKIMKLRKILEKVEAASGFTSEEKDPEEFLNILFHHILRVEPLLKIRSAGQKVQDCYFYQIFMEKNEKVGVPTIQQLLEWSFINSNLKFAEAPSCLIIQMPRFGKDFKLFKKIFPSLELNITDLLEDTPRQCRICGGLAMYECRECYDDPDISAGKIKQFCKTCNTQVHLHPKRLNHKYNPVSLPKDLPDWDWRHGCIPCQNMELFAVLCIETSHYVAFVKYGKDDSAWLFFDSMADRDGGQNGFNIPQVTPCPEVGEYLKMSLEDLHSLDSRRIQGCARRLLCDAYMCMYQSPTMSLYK
UniProt Q9H8V3: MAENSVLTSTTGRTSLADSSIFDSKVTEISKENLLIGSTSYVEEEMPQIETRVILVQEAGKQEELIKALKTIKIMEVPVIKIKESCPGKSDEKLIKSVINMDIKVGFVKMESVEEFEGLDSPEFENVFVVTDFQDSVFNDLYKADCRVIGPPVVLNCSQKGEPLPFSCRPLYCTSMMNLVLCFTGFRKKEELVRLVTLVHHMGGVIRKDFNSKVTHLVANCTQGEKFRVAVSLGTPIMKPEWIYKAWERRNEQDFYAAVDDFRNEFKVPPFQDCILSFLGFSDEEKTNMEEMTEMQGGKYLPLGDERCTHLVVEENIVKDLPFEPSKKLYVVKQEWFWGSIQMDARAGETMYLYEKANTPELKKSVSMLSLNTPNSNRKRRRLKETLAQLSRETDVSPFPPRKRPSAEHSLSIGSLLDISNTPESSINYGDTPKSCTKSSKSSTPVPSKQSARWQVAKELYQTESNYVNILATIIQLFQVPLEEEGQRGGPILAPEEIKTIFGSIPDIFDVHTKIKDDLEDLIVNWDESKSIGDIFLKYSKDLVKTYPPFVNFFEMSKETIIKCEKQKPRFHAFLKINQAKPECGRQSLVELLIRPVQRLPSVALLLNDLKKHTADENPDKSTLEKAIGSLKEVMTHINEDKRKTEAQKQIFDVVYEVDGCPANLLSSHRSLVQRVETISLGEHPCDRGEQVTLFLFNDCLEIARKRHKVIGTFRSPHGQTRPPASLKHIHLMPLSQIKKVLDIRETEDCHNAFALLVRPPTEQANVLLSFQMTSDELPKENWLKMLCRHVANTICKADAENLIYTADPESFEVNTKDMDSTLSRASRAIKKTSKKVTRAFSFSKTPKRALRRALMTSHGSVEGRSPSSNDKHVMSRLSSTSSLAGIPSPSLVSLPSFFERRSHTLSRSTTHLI
UniProt Q9H7P9: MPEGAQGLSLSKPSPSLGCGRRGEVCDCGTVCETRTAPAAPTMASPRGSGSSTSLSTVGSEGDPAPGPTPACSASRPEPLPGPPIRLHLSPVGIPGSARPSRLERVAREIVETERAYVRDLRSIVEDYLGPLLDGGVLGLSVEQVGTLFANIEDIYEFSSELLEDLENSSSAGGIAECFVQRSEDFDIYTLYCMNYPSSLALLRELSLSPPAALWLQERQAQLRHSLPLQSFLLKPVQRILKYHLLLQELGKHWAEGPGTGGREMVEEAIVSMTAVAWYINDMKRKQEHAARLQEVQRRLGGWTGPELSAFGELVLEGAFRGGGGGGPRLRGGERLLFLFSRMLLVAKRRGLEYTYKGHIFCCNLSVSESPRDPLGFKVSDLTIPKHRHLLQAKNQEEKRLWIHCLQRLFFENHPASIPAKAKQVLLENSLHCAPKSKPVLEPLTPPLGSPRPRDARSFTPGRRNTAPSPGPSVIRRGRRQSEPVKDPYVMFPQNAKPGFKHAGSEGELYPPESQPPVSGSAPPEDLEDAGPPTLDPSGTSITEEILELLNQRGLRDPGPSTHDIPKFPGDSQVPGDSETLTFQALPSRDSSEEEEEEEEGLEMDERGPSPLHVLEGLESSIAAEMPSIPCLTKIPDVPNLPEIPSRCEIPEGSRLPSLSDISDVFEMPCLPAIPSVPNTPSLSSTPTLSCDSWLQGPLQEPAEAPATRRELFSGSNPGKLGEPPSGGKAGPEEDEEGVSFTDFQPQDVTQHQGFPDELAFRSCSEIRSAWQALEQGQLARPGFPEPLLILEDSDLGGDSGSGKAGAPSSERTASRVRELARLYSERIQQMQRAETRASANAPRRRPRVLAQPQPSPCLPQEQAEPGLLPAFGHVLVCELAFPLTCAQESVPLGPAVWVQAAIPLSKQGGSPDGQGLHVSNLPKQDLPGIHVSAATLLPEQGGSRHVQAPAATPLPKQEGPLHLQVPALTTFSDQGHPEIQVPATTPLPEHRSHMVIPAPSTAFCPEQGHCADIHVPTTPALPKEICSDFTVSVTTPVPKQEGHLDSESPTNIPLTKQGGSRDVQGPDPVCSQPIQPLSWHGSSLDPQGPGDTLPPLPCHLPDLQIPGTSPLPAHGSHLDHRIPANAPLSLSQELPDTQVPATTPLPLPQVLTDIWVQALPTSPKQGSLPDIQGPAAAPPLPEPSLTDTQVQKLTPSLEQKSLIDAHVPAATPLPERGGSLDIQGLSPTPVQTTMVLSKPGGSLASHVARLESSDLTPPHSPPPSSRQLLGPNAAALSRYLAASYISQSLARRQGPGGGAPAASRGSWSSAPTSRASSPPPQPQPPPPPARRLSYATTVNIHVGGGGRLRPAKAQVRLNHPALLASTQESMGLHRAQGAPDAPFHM
UniProt Q9H6F5: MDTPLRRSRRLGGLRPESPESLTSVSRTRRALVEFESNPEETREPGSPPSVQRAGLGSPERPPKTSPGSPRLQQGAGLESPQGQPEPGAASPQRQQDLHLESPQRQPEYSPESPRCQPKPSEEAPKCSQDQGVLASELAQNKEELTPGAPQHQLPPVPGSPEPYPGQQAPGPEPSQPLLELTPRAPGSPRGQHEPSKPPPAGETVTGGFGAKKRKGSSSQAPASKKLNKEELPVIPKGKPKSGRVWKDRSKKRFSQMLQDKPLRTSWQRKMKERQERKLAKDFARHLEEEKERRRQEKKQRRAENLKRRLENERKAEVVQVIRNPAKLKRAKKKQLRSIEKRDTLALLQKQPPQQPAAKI
UniProt Q9NQ88: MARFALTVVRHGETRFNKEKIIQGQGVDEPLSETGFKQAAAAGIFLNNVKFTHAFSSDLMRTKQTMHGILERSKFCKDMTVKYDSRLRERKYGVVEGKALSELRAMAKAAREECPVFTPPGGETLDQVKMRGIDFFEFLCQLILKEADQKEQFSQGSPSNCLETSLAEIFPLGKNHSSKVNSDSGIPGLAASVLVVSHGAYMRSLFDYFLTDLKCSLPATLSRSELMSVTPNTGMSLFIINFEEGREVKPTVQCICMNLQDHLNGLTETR
UniProt Q9NQ31: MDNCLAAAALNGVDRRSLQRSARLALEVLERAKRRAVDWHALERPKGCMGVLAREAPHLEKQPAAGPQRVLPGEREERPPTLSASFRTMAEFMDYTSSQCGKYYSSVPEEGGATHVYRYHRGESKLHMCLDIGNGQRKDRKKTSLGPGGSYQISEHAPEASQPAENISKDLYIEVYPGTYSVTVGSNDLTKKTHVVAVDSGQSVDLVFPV
UniProt Q9HAW0, whole entry: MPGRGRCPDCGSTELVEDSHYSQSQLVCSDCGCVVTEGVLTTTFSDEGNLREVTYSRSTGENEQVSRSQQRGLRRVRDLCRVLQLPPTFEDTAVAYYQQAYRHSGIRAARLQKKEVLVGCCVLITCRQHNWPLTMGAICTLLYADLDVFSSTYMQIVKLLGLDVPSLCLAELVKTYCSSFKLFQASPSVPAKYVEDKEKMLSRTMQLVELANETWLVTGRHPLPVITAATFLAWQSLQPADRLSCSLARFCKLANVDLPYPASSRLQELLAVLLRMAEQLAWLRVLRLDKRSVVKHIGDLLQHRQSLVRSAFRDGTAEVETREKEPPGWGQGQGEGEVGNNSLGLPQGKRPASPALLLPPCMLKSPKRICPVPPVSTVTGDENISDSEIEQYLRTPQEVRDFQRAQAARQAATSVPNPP
UniProt Q9NQG5: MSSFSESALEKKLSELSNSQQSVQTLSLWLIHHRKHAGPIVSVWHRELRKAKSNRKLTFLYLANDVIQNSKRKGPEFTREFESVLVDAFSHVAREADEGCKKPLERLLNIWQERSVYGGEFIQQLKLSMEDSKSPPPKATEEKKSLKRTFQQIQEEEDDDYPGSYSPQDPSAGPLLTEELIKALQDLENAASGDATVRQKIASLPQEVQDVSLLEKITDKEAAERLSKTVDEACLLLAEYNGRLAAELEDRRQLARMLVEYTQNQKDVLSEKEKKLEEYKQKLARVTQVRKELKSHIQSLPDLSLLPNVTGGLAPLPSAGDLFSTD

Some of the results follow. Most values lie at the level of the controls, where differences are scatter.

Compound in the test: CN[C@@H]1C[C@H]2O[C@@](C)([C@@H]1OC)n1c3ccccc3c3c4c(c5c6ccccc6n2c5c31)C(=O)NC4 [staurosporine]
As to the kind of experiment: log2 fold change of tryptic peptide abundance, ligand vs vehicle (limited proteolysis) (log2 ratio); higher = more trypsin-susceptible (destabilized). Conditions: ligand concentration: 20 uM; sample: K562 cleared lysate; digestion: 4 min, 22 C (HT-PELSA RT4min, Orbitrap Astral).
Take “ELAC1 (peptide sequence: DLGVPPGPAYGK, peptide start residue: 207) (UniProt Q9H777)”: the log2 fold change was determined as 0.313.
For “CYLD (peptide sequence: FHSLPFSLTK, peptide start residue: 416) (UniProt Q9NQC7)”, the log2 fold change is -0.215.
For the target “ECT2 (peptide sequence: SPHGQTRPPASLK, peptide start residue: 716) (UniProt Q9H8V3)”, the log2 fold change turned out to be 0.74.
With “PLEKHG2 (peptide sequence: LHLSPVGIPGSAR, peptide start residue: 87) (UniProt Q9H7P9)” the figure was -0.709; with “CCDC86 (peptide sequence: EPGSPPSVQR, peptide start residue: 44) (UniProt Q9H6F5)”, 0.615; with “UniProt Q9NQ88 (peptide sequence: CSLPATLSR, peptide start residue: 215)”, 0.214.
To “UniProt Q9NQ31 (peptide sequence: LALEVLER, peptide start residue: 24)” belongs -0.0704; to “BRF2 (peptide sequence: MAEQLAWLR, peptide start residue: 276) (UniProt Q9HAW0)”, -0.283.
With “RPRD1B (peptide sequence: LTFLYLANDVIQNSKR, peptide start residue: 57) (UniProt Q9NQG5)” the figure was 0.49.
